From article PMC11761031
These are yes or no findings as the source states them, for the method shown. Binding seen in cells or lysates may run through a third protein. Here binding means that the protein was enriched with, or labelled near, the bait; the list need not be complete.

Molecular target: HA-tagged SIN3 (Drosophila melanogaster)
Assay: affinity purification with mass spectrometry; HA-tagged SIN3 immunoprecipitated from Drosophila S2 cells treated with PBS or 2-DG; interactors by TMT multiplexing with LC-MS/MS (RTS, SPS); enrichment against a no tag control; five biological replicates

| Binder | binding |
| --- | --- |
| MRG15 (protein, UniProt Q9Y0I1 1-424) MGEVKPAKVENYSTGTDANTLFVDGERVLCFHGPLIYEAKVLKTKPDATPVEYYIHYAGWSKNWDEWVPENRVLKYNDDNVKRRQELARQCGERSKKDNKKGSAKAKKMEQMRNESRASTPSKDSNTSQSTASSTPTTSAGPGSKSEAGSTGTTTTNSTANSTTSRAHRKSTQSTPSTARPGTPSDKKEDPAAAETTEEEGPVAPKKKRMSEQRPSLTGSDVAEKPLPPTTTPSTPTTEPAPCVESEEAYAAKVEVKIKIPDELKHYLTDDWYAVVREHKLLELPAKVTVQQISEQYLAHKKSVKSTSASKEVAINDVLDGIVEYFNVMLGSQLLYKFERTQYADVMQKHPDTPLSELYGSFHLLRLFVRLGSMLSYSALDQQSMQNLLTHVQDFLKFLVKNSSIFFSMSNFINVDPEYVRNAQ | binds |
| Negative elongation factor A (NELF-A) (protein, UniProt Q86NP2 1-1251) MANVRDSDTSLWLHNKLGTSNDSWINGSICSQLNKEVLRNIKECFPDLQTQVKLKLLLSFLHIPRRLVEEWKAELEEVIEVAGLDSELWVSMLAETMKTFPATSSLNTEISDYEDTRPIFIDMVNDLRKLVTKHSDLGMLPLECQYLNKNALISVVGQQPAPVKHFTLKRKPKSAQLRTELLHKSADAQSSLKKASAPTIPLRSRGMPRKMTDTTPLKGIPSRMPTTGFRSATVPGNAAQRPNLSRTPAGRKDGGIKLIEFTEQPLGYAAAKKRKREQQLEEQQKKQEQKQQQAAAAAAAAATAAASNAGDSSPTDAATASGGETPVTPTSANNSFEIKMEPQQLNQSAGSLEEPQDDEMSGKANMECDIETPEYATATLDFAQATSTSVADGQPGKPAVETKLKTPRTPKSAAKLNNNNNNNNNNSFNHTPKRIKQEIEIKSEEIIVPASIKLEKIETSPSTQRVSIQQQPPSLVQRTPHLLIRSSPQKRQNNGATTSAGTTTTTVGNTTIKMEKLDIKPMIRATGVSPSTSAGTTTTLLTPQQLRQAANPLANLPNNISVKITSAKAKAAAAAAATSSGSQTQSQQPQTLQVQQAPQQSHPPLLINSSTPVILASSPSAQRAKALALPSSSTSATTTTTIPSQAIKTMPLSQLKTATNSGPVIISQTIIQPAKRAQQQAGTSSAAAASQQQQQQQSQQQLLHQQIQQQTQQQAQLPQQPQQQQTQYILATPQQQPQQIQQQQQQQQPILPTLTSFSHSRPMPQTTTLYQATTPSGSGQTPTKILLKTSGSSSVVMTPLRQAQPQQATAVVSSNPPPLVATSAAVVSPGQTTLNIQNVQLPNRPVTIQPASQAAQQQHMQAQLQQQQPHPQHTIVANTTATQQPKLSQVLMQPTAAVGTSGVSALNVSPTSGKNKTIILTQKGVILRNIGGDMYQQIPISNVGNMQGLGGTTLMTTTAGPPSLVKTTPSSGVQLQQQQSGKQILPTLIPTSSLGGQHVIVQQQQPTNVIGNSQQQTIIRPVMTNVGGGLTTLPQGLTLIQRPGQQPQLVQVQAAPGSTQRTIITQSNTAAAASQQQPRQQQQQILVQHKPAPTLQQRLVTSTTSGGQGQQGNPNAGLPRTVQVQVQAQQQQQPQQQQATQQQSQQAPQRRGLSLSNEHVHKAHEMFRKANRVSRPDKALILGFMAGLRENPRPNNENVLVIKLGETEEKVQQDNGHTALCLVESHIRLDYNTGEWKTFQNYRLQDQSAAS | binds |
